Measured values: the supplement of paper PMC10849652
This is one part of the list.

Amino acid sequences for entries named in this document (tags omitted). A change or cut given only in a name is not applied to a line headed by its entry.
UniProt Q6Y7W6: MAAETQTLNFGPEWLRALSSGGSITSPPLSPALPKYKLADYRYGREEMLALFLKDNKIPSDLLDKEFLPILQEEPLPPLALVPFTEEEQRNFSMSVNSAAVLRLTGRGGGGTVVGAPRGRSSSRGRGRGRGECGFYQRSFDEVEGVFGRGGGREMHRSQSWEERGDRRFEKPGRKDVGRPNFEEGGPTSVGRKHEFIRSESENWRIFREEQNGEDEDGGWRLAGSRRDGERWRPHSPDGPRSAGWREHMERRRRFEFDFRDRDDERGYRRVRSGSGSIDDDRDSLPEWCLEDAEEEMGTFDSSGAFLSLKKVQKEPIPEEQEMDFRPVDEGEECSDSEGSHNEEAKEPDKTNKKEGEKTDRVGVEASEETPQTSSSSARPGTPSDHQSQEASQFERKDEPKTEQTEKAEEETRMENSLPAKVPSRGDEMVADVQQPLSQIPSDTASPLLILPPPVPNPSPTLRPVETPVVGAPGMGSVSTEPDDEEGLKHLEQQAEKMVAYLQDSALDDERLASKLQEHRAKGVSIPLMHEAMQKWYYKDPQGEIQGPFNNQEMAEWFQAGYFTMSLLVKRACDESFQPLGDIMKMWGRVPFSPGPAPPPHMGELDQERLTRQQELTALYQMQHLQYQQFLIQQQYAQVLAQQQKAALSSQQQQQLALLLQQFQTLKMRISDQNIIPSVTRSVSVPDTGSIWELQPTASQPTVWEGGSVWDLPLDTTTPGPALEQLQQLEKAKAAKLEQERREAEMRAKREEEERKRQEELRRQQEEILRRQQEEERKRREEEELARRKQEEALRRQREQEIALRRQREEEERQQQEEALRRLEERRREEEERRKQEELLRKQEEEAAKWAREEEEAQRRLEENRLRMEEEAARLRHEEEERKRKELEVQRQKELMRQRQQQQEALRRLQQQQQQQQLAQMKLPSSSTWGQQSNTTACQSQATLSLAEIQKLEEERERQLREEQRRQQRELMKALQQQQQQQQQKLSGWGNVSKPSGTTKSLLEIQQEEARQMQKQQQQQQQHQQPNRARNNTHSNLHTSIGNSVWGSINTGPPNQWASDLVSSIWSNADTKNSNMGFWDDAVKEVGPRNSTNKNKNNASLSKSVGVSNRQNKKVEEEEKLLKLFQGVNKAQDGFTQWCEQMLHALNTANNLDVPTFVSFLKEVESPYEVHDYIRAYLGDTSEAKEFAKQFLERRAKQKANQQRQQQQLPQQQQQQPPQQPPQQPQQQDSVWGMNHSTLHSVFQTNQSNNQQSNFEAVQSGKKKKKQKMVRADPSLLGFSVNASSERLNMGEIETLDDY
UniProt Q9BRT9, whole entry, looked up: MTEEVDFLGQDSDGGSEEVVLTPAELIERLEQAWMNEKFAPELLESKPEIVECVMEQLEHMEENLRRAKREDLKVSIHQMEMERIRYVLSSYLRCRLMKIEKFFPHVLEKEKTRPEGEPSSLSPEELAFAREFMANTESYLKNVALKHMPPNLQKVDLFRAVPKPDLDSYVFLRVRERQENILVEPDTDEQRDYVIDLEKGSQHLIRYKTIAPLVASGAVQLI
UniProt Q92820: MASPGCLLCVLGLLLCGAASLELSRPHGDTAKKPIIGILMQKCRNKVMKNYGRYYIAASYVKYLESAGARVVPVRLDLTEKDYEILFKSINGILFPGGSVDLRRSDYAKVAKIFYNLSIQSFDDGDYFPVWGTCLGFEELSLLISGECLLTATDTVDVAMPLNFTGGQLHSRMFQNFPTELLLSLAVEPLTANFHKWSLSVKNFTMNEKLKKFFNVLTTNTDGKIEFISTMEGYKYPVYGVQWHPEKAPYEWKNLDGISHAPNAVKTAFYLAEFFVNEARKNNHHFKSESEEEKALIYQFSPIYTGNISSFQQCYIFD
UniProt P29992, whole entry, looked up: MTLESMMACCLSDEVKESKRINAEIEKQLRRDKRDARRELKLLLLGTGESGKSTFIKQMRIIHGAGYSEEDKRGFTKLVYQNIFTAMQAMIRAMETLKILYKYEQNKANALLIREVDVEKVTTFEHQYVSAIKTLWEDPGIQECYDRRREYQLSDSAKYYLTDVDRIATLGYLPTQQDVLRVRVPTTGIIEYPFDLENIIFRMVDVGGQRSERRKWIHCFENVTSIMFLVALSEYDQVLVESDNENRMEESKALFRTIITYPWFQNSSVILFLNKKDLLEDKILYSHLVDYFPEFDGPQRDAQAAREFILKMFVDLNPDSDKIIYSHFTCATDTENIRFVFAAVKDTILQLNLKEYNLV
UniProt Q92990: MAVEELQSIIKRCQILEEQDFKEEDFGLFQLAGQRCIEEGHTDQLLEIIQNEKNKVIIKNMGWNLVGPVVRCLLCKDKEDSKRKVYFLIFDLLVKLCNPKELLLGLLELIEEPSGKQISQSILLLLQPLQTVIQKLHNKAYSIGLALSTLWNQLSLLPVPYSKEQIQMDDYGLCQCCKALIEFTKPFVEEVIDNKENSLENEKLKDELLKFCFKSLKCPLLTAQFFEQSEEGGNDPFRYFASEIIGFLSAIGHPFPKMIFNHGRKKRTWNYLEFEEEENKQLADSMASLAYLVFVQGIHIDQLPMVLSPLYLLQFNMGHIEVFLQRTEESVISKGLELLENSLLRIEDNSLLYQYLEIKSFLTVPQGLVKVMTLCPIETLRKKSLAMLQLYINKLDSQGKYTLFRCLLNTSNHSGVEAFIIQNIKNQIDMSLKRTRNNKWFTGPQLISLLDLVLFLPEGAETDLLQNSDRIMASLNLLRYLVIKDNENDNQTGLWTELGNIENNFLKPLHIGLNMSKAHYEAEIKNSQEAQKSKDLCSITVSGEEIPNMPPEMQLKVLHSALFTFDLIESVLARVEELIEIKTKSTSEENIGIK
UniProt Q14344, whole entry, looked up: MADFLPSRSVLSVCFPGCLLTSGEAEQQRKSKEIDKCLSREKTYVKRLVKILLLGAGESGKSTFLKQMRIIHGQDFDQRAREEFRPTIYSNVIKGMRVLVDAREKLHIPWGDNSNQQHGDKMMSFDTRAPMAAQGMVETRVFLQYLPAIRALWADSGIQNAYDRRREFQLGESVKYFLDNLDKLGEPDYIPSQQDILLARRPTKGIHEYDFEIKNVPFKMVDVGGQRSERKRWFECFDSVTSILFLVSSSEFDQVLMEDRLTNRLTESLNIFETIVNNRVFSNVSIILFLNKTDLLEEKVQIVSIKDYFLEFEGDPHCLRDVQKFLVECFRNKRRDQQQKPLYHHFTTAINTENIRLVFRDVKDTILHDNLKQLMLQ
UniProt P00367: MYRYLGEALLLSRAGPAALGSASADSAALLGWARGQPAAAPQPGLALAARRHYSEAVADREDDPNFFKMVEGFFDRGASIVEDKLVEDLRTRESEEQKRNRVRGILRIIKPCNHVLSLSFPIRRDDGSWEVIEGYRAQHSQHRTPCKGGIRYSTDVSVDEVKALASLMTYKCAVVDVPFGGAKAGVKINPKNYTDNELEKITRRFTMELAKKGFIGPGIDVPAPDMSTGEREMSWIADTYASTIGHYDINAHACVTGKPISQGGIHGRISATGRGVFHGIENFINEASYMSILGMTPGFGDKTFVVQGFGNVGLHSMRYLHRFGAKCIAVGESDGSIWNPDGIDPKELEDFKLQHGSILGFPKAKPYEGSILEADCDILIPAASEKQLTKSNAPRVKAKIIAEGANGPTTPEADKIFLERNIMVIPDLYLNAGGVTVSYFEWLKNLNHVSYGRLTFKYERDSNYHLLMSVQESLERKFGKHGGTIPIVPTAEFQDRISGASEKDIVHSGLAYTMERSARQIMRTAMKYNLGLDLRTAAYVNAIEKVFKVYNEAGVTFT
UniProt Q96IJ6: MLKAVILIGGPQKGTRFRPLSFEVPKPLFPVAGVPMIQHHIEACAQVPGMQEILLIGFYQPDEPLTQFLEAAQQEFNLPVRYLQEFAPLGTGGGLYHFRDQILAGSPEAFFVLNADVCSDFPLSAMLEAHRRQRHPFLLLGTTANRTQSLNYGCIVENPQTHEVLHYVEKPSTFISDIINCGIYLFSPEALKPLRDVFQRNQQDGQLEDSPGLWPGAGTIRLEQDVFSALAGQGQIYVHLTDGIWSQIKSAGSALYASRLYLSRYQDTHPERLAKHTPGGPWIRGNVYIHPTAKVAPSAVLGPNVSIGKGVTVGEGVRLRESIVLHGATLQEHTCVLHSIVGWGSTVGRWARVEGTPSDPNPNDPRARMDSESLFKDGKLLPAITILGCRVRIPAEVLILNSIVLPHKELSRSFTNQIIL
UniProt Q9HC38: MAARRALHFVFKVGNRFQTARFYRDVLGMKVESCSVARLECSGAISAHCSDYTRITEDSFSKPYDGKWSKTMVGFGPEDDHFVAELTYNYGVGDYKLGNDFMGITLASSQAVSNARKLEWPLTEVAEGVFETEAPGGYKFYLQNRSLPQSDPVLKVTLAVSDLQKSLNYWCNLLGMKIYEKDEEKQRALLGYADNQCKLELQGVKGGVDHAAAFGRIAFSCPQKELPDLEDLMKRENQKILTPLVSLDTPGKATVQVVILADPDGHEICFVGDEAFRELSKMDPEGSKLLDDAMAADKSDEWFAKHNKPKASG
UniProt P15104, whole entry, looked up: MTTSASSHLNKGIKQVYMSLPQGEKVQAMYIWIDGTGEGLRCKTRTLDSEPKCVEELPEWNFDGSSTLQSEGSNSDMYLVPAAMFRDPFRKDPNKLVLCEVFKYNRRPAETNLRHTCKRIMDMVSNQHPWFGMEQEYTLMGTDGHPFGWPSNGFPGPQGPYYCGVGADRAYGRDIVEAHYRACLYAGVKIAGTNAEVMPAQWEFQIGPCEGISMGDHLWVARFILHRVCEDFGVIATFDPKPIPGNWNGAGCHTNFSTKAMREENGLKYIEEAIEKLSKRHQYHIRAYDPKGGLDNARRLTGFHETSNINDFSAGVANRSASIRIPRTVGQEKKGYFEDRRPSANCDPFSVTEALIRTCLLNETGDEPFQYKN
UniProt Q86WP2: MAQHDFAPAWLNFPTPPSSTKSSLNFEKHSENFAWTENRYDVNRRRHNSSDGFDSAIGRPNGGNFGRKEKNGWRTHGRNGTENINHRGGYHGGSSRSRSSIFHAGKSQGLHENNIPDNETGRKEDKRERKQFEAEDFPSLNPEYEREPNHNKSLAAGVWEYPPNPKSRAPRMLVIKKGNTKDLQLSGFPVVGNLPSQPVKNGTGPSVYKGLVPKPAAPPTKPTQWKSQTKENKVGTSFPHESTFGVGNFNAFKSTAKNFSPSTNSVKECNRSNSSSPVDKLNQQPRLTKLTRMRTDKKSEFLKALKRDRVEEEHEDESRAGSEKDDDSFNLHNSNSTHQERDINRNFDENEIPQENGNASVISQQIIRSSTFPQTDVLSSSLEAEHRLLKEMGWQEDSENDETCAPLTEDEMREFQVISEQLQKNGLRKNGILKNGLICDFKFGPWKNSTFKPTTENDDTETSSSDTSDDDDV
UniProt Q13227: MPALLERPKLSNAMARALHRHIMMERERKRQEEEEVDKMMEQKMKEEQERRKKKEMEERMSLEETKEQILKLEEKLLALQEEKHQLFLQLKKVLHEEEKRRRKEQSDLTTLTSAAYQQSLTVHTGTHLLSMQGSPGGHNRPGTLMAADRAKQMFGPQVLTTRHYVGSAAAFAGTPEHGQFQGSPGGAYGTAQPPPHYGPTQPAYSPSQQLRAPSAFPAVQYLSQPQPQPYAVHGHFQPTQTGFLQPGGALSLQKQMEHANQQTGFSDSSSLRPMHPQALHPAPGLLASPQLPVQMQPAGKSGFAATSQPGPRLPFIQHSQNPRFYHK
UniProt Q9UKD1: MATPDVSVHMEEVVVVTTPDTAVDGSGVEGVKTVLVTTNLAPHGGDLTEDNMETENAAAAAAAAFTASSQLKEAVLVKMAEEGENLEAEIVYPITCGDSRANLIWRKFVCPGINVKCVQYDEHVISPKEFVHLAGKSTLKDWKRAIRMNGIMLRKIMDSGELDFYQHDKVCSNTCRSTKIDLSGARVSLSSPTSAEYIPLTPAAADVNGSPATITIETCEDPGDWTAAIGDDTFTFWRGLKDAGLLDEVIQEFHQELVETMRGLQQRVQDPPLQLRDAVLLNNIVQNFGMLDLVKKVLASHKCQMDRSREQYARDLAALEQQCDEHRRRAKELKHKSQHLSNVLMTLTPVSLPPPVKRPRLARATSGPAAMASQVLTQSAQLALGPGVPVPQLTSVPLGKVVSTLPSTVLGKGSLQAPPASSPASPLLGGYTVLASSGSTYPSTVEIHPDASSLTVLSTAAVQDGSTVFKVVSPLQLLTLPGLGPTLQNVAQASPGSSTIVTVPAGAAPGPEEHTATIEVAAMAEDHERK
UniProt P00505: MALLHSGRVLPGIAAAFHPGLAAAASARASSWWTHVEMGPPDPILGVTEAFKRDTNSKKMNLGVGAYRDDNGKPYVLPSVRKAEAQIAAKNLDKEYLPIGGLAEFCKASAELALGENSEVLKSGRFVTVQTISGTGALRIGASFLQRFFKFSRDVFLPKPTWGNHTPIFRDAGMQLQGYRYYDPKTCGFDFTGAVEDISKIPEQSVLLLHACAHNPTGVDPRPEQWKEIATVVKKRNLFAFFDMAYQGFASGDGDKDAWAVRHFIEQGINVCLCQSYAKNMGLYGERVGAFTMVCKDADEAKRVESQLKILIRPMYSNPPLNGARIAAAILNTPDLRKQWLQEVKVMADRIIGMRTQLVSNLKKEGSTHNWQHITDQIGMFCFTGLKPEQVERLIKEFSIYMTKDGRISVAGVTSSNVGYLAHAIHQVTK

Legend:
Assay in all cases: log2 fold change, soluble protein after heating vs DMSO (PISA); higher = thermal stabilisation; K562 lysate, 10 uM; active = over 0.2 and 3.5 SD of the protein, either way, in both replicates (recomputed)
vemurafenib = compound: CCCS(=O)(=O)Nc1ccc(F)c(C(=O)c2c[nH]c3ncc(-c4ccc(Cl)cc4)cc23)c1F [vemurafenib]
Procedure, shortened: (§1)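 Pellets of K562 cells were dounce-homogenised in PBS pH 7.4 with 1 mM MgCl2, and the crude extract was held at 1 mg/mL protein for a 30 min treatment with 10 μM compound. Aliquots were heated for 3 min over 48°C-58°C and pooled before NP-40 was added to 0.5% at 4°C. The supernatant from 21,000xg for 90 min was quantified by TMTpro 16plex LC-MS/MS with channel sums equalised. Values are reported from duplicates as log-two fold change in thermal stability relative to solvent controls.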

[1] = compound: CCCS(=O)(=O)Nc1ccc(F)c(C(=O)c2c[nH]c3ncc(Cl)cc23)c1F
Procedure, shortened: as §1

barasertib = compound: CCN(CCCOc1ccc2c(Nc3cc(CC(=O)Nc4cccc(F)c4)[nH]n3)ncnc2c1)CCOP(=O)(O)O [barasertib]
Procedure, shortened: as §1

[2] = compound: CC[C@@H]1C(=O)N(C)c2cnc(Nc3ccc(C(=O)NC4CCN(C)CC4)cc3OC)nc2N1C1CCCC1
Procedure, shortened: as §1

volasertib = compound: CC[C@@H]1C(=O)N(C)c2cnc(Nc3ccc(C(=O)N[C@H]4CC[C@H](N5CCN(CC6CC6)CC5)CC4)cc3OC)nc2N1C(C)C [volasertib]
Procedure, shortened: as §1

[3] = compound: CCn1c(C(=O)N(C2CC2)C2CC2)cc2c3c(ncn3C)c(Nc3cc(C)n(C)n3)nc21
Procedure, shortened: as §1

[4] = compound: CCn1cc(-c2ccnc3[nH]c(-c4cccc(CN(C)C)c4)cc23)c(-c2ccc(NC(=O)N(C)C)cc2)n1
Procedure, shortened: as §1

[5] = compound: CN1CCC(CNc2ccc3ncc(-c4cccc(OC(F)(F)F)c4)n3n2)CC1
Procedure, shortened: as §1

saracatinib = compound: CN1CCN(CCOc2cc(OC3CCOCC3)c3c(Nc4c(Cl)ccc5c4OCO5)ncnc3c2)CC1 [saracatinib]
Procedure, shortened: as §1

sotrastaurin = compound: CN1CCN(c2nc(C3=C(c4c[nH]c5ccccc45)C(=O)NC3=O)c3ccccc3n2)CC1 [sotrastaurin]
Procedure, shortened: as §1

alvocidib = compound: CN1CC[C@H](c2c(O)cc(O)c3c(=O)cc(-c4ccccc4Cl)oc23)[C@H](O)C1 [alvocidib]
Procedure, shortened: as §1

Tubastatin A = compound: CN1CCc2c(c3ccccc3n2Cc2ccc(C(=O)NO)cc2)C1 [Tubastatin A]
Procedure, shortened: as §1

[6] = compound: CNC(=O)C1=CC=CC=C1NC2=NC(=NC=C2Cl)NC3=C(C=C(C=C3)N4CCOCC4)OC
Procedure, shortened: as §1

defactinib = compound: CNC(=O)c1ccc(Nc2ncc(C(F)(F)F)c(NCc3nccnc3N(C)S(C)(=O)=O)n2)cc1 [defactinib]
Procedure, shortened: as §1

[7] = compound: CNc1nc(-c2ccc3c(N)n[nH]c3c2)cc(N2C[C@@H](C(=O)NC3CCCCC3)CC[C@H]2C)n1
Procedure, shortened: as §1

encorafenib = compound: COC(=O)N[C@@H](C)CNc1nccc(-c2cn(C(C)C)nc2-c2cc(Cl)cc(NS(C)(=O)=O)c2F)n1 [encorafenib]
Procedure, shortened: as §1

[8] = compound: COC(=O)[C@H](CCSC)NC(=O)C1=C(C=C(C=C1)NC[C@H](CS)N)C2=CC=CC=C2
Procedure, shortened: as §1

alisertib = compound: COc1cc(Nc2ncc3c(n2)-c2ccc(Cl)cc2C(c2c(F)cccc2OC)=NC3)ccc1C(=O)O [alisertib]
Procedure, shortened: as §1

[9] = compound: COc1cc2nc(-c3cc(F)ccc3O)nc(N[C@@H]3CNC[C@H]3C(C)(C)O)c2cc1OC
Procedure, shortened: as §1

gefitinib = compound: COc1cc2ncnc(Nc3ccc(F)c(Cl)c3)c2cc1OCCCN1CCOCC1 [gefitinib]
Procedure, shortened: as §1

Measured: log2 fold change

GIGYF2 (UniProt Q6Y7W6)
inactive: vemurafenib -0.001 | [1] -0.017 | barasertib 0.049 | [2] 0.093 | volasertib -0.05 | [3] -0.001 | [4] 0.028 | [5] -0.055 | saracatinib 0.009 | sotrastaurin -0.001 | alvocidib -0.028 | Tubastatin A -0.164 | [6] 0.052 | defactinib 0.017 | [7] 0.019 | encorafenib 0.092 | [8] -0.063 | alisertib 0.028 | [9] 0.013 | gefitinib 0.005

GPR108 (UniProt Q9NPR9)
inactive: vemurafenib 0.001 | [1] -0.059 | barasertib -0.03 | [2] 0.01 | volasertib 0.03 | [3] 0.031 | [4] 0.057 | [5] 0.01 | saracatinib 0.092 | sotrastaurin 0.019 | alvocidib -0.068 | Tubastatin A -0.034 | [6] 0.075 | defactinib 0 | [7] 0.014 | encorafenib 0.11 | [8] -0.066 | alisertib 0.001 | [9] 0.047 | gefitinib 0.002

GINS4 (UniProt Q9BRT9)
inactive: vemurafenib -0.008 | [1] 0.03 | barasertib 0.017 | [2] 0.027 | volasertib 0.002 | [3] -0.003 | [4] -0.012 | [5] 0.054 | saracatinib -0.004 | sotrastaurin -0.004 | alvocidib -0.004 | Tubastatin A -0.009 | [6] 0.006 | defactinib 0.026 | [7] -0.026 | encorafenib 0.021 | [8] 0.029 | alisertib 0.03 | [9] -0.014 | gefitinib 0.02

GGH (UniProt Q92820)
inactive: vemurafenib 0.017 | [1] -0.005 | barasertib -0.04 | [2] 0.021 | volasertib 0.044 | [3] 0.02 | [4] -0.166 | [5] 0.129 | saracatinib -0.006 | sotrastaurin -0.053 | alvocidib -0.033 | Tubastatin A 0.061 | [6] 0.005 | defactinib 0.029 | [7] 0.041 | encorafenib 0.008 | [8] -0.028 | alisertib 0.013 | [9] 0.009 | gefitinib -0.035

GNA11 (UniProt P29992)
inactive: vemurafenib 0.017 | [1] -0.003 | barasertib 0.031 | [2] -0.038 | volasertib 0.008 | [3] 0.005 | [4] -0.093 | [5] 0.062 | saracatinib -0.006 | sotrastaurin -0.018 | alvocidib -0.008 | Tubastatin A 0.026 | [6] -0.004 | defactinib 0 | [7] -0.065 | encorafenib 0.051 | [8] -0.023 | alisertib 0.011 | [9] 0.017 | gefitinib 0.022

GLMN (UniProt Q92990)
inactive: vemurafenib -0.009 | [1] -0.004 | barasertib -0.007 | [2] -0.003 | volasertib -0.018 | [3] 0.008 | [4] -0.031 | [5] 0.028 | saracatinib -0.022 | sotrastaurin 0.013 | alvocidib -0.002 | Tubastatin A -0.033 | [6] -0.007 | defactinib -0.011 | [7] -0.018 | encorafenib -0.029 | [8] 0.045 | alisertib 0.009 | [9] 0.009 | gefitinib 0.007

GNA13 (UniProt Q14344)
inactive: vemurafenib 0.036 | [1] 0.012 | barasertib 0.062 | [2] 0.048 | volasertib -0.025 | [3] -0.02 | [4] -0.066 | [5] 0.057 | saracatinib 0.021 | sotrastaurin 0.004 | alvocidib -0.027 | Tubastatin A 0.041 | [6] -0.014 | defactinib 0.072 | [7] -0.004 | encorafenib 0.012 | [8] -0.05 | alisertib 0.002 | [9] 0.001 | gefitinib -0.007

GLUD1 (UniProt P00367)
inactive: vemurafenib 0.003 | [1] -0.011 | barasertib -0.016 | [2] -0.009 | volasertib -0.177 | [3] 0.004 | [4] -0.019 | [5] 0.024 | saracatinib 0.065 | sotrastaurin 0.017 | alvocidib 0.007 | Tubastatin A 0.038 | [6] 0.011 | defactinib -0.013 | [7] -0.033 | encorafenib -0.014 | [8] 0.001 | alisertib -0.003 | [9] -0.028 | gefitinib -0.009

GMPPA (UniProt Q96IJ6)
inactive: vemurafenib -0.004 | [1] 0.043 | barasertib 0.004 | [2] -0.078 | volasertib -0.051 | [3] -0.011 | [4] -0.125 | [5] 0.04 | saracatinib -0.019 | sotrastaurin -0.007 | alvocidib -0.033 | Tubastatin A 0.009 | [6] 0.014 | defactinib -0.008 | [7] 0.025 | encorafenib 0.017 | [8] 0.107 | alisertib 0.027 | [9] 0.013 | gefitinib -0.012

GLOD4 isoform 2 (UniProt Q9HC38)
inactive: vemurafenib 0.023 | [1] -0.009 | barasertib 0.012 | [2] -0.043 | volasertib -0.001 | [3] -0.007 | [4] 0.026 | [5] -0.017 | saracatinib -0.003 | sotrastaurin -0.003 | alvocidib 0.007 | Tubastatin A 0.046 | [6] -0.015 | defactinib -0.033 | [7] -0.007 | encorafenib -0.034 | [8] 0.025 | alisertib 0 | [9] 0.002 | gefitinib 0.014

GLS isoform 3 (UniProt O94925)
inactive: vemurafenib 0.019 | [1] 0.073 | barasertib 0.065 | [2] -0.051 | volasertib -0.049 | [3] -0.01 | [4] -0.05 | [5] -0.031 | saracatinib 0.018 | sotrastaurin 0.039 | alvocidib 0.029 | Tubastatin A -0.085 | [6] -0.017 | defactinib 0.009 | [7] -0.029 | encorafenib -0.009 | [8] 0.079 | alisertib -0.001 | [9] -0.082 | gefitinib 0.011

GLUL (UniProt P15104)
inactive: vemurafenib -0.055 | [1] 0.012 | barasertib -0.026 | [2] -0.028 | volasertib -0.024 | [3] 0.021 | [4] 0.326 | [5] -0.058 | saracatinib -0.004 | sotrastaurin 0.016 | alvocidib 0.011 | Tubastatin A 0.015 | [6] 0.034 | defactinib 0.027 | [7] -0.125 | encorafenib -0.002 | [8] 0.029 | alisertib 0.002 | [9] -0.019 | gefitinib -0.004

GPBP1 isoform 2 (UniProt Q86WP2)
inactive: vemurafenib -0.009 | [1] -0.057 | barasertib -0.019 | [2] 0.202 | volasertib 0.068 | [3] 0.016 | [4] -0.006 | [5] -0.004 | saracatinib 0.012 | sotrastaurin -0.079 | alvocidib -0.023 | Tubastatin A -0.112 | [6] 0.019 | defactinib -0.036 | [7] 0.128 | encorafenib 0.001 | [8] -0.02 | alisertib 0.01 | [9] 0.028 | gefitinib 0.004

Reprinted from the entries so far (two entries):
GLOD4 isoform 2 (UniProt Q9HC38)
inactive: vemurafenib 0.023 | [1] -0.009 | barasertib 0.012 | [2] -0.043 | volasertib -0.001 | [3] -0.007 | [4] 0.026 | [5] -0.017 | saracatinib -0.003 | sotrastaurin -0.003 | alvocidib 0.007 | Tubastatin A 0.046 | [6] -0.015 | defactinib -0.033 | [7] -0.007 | encorafenib -0.034 | [8] 0.025 | alisertib 0 | [9] 0.002 | gefitinib 0.014

GLS isoform 3 (UniProt O94925)
inactive: vemurafenib 0.019 | [1] 0.073 | barasertib 0.065 | [2] -0.051 | volasertib -0.049 | [3] -0.01 | [4] -0.05 | [5] -0.031 | saracatinib 0.018 | sotrastaurin 0.039 | alvocidib 0.029 | Tubastatin A -0.085 | [6] -0.017 | defactinib 0.009 | [7] -0.029 | encorafenib -0.009 | [8] 0.079 | alisertib -0.001 | [9] -0.082 | gefitinib 0.011

Next part

GPS2 (UniProt Q13227)
inactive: vemurafenib -0.09 | [1] 0.033 | barasertib -0.055 | [2] 0.064 | volasertib 0.085 | [3] 0.004 | [4] 0.052 | [5] 0.025 | saracatinib 0.093 | sotrastaurin 0.056 | alvocidib -0.014 | Tubastatin A 0.015 | [6] -0.009 | defactinib -0.087 | [7] -0.148 | encorafenib -0.11 | [8] 0.087 | alisertib 0.04 | [9] -0.002 | gefitinib 0.003

GMEB2 (UniProt Q9UKD1)
inactive: vemurafenib -0.004 | [1] 0.029 | barasertib 0.049 | [2] 0.078 | volasertib 0.039 | [3] -0.039 | [4] 0.058 | [5] 0.003 | saracatinib -0.003 | sotrastaurin -0.012 | alvocidib -0.019 | Tubastatin A 0.023 | [6] 0.018 | defactinib 0.001 | [7] 0.054 | encorafenib -0.023 | [8] 0.007 | alisertib -0.054 | [9] -0.008 | gefitinib 0.058

GOT2 (UniProt P00505)
inactive: vemurafenib -0.033 | [1] 0.003 | barasertib -0.035 | [2] 0.018 | volasertib 0.02 | [3] 0.006 | [4] 0.096 | [5] 0 | saracatinib -0.035 | sotrastaurin -0.012 | alvocidib 0.004 | Tubastatin A 0.015 | [6] 0.001 | defactinib 0.021 | [7] 0.026 | encorafenib -0.013 | [8] -0.035 | alisertib -0.006 | [9] 0.009 | gefitinib 0.009
